Experimental data as given in paper PMC12059597.
Construct, isoform or probe ends are uncertain for at least one entry. Results from cells or extracts need not show a direct contact. For some of these results: No signal at the amounts used counts as a negative. For some of these results: At least one verdict rests on a figure or table, not on a statement of the authors.

Chains of the proteins cited; added tags and fusions are not shown. A change or cut given only in a name is not applied to a line headed by its entry. A line that says so, or that is headed by a name, gives the form on record, which may keep a tag or linker.
UniProt P15379: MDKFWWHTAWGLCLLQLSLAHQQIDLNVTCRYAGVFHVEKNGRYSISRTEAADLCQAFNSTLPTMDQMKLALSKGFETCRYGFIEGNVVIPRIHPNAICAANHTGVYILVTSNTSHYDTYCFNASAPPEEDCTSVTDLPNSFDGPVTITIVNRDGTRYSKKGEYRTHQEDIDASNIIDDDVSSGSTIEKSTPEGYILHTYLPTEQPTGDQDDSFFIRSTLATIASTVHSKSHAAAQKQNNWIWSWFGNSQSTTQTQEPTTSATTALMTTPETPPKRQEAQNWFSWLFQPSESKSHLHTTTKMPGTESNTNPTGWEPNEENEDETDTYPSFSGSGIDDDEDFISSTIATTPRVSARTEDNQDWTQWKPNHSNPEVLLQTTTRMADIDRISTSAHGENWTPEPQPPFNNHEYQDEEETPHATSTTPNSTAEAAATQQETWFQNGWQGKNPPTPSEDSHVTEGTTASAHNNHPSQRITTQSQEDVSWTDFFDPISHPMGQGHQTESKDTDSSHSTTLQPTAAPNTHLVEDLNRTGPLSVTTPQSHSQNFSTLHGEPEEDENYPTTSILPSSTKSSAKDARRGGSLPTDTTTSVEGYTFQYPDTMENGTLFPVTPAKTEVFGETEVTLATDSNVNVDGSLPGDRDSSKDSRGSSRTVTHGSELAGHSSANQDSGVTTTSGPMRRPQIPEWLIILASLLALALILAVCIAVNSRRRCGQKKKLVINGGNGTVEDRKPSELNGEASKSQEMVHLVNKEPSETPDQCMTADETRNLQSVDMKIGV
CD44 (predominantly standard isoform CD44s) on human TNBC cells (Homo sapiens (Cis-Pt-R, MDA-MB-231, BT-549 cells)), one chain, as listed by the source: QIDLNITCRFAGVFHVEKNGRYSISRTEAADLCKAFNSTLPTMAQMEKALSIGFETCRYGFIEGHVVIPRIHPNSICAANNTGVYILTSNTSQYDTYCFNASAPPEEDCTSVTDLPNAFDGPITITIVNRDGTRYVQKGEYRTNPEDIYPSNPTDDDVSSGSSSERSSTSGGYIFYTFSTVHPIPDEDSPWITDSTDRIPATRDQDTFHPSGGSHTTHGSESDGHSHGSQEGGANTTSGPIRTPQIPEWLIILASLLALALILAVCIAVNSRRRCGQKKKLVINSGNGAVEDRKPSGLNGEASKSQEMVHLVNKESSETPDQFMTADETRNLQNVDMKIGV

Assays:
[1] = tested on: CD44 (predominantly standard isoform CD44s) on human TNBC cells (Homo sapiens (Cis-Pt-R, MDA-MB-231, BT-549 cells)); assay: flow cytometry cell binding with siRNA knockdown; details: 150 nM aptamer, binding falls with CD44 knockdown (Kd curve only in Fig. S2), 2'-fluoro pyrimidines (2'F-Py) in the entire sequence, Flow cytometry: 150 nM Alexa 647-sTN58, serum-free medium, 0.1 mg/mL yeast tRNA, 0.1 mg/mL salmon sperm DNA, 10 min RT, after 30-fold excess unlabeled SCR, protein on the cell surface, label: 5'-biotin (pull-down) or Alexa 647 (cell binding)
CD44 on murine 4T1 cells [2] = target: CD44 on murine 4T1 cells (UniProt P15379); assay: flow cytometry and confocal colocalization with CD44 antibody; details: overlap coefficient 0.76, 2'-fluoro pyrimidines (2'F-Py) in the entire sequence, Flow cytometry: 150 nM Alexa 647-sTN58, serum-free medium, 0.1 mg/mL yeast tRNA, 0.1 mg/mL salmon sperm DNA, 10 min RT, after 30-fold excess unlabeled SCR, protein on the cell surface, label: 5'-biotin (pull-down) or Alexa 647 (cell binding)
[3] = tested on: CD44 (predominantly standard isoform CD44s) on human TNBC cells (Homo sapiens (Cis-Pt-R, MDA-MB-231, BT-549 cells)); assay: confocal colocalization with CD44 antibody; details: 2 uM aptamer, overlap coefficient 0.74, 2'-fluoro pyrimidines (2'F-Py) in the entire sequence, confocal: 2 uM in serum-free RPMI-1640, 5 min RT, protein on the cell surface, label: 5'-biotin (pull-down) or Alexa 647 (cell binding)
[4] = tested on: CD44 (predominantly standard isoform CD44s) on human TNBC cells (Homo sapiens (Cis-Pt-R, MDA-MB-231, BT-549 cells)); assay: flow cytometry cell binding; details: MDA-MB-231 cells, 150 nM aptamer; 2'-fluoro pyrimidines (2'F-Py) in the entire sequence; Flow cytometry: 150 nM Alexa 647-sTN58, serum-free medium, 0.1 mg/mL yeast tRNA, 0.1 mg/mL salmon sperm DNA, 10 min RT, after 30-fold excess unlabeled SCR; protein on the cell surface; label: 5'-biotin (pull-down) or Alexa 647 (cell binding)
[5] = tested on: CD44 (predominantly standard isoform CD44s) on human TNBC cells (Homo sapiens (Cis-Pt-R, MDA-MB-231, BT-549 cells)); assay: aptamer pull-down and LC-MS/MS; details: 400 nM biotin-sTN58, Cis-Pt-R membrane proteins precleared with biotin-SCR; 2'-fluoro pyrimidines (2'F-Py) in the entire sequence; pull-down: 400 nM in DPBS with protease inhibitors, 30 min RT; pH not stated; protein on the cell surface; label: 5'-biotin (pull-down) or Alexa 647 (cell binding)
CD44 on murine 4T1 cells [6] = target: CD44 on murine 4T1 cells (UniProt P15379); assay: confocal microscopy; details: 4T1 cells, 2 uM aptamer; 2'-fluoro pyrimidines (2'F-Py); confocal: 2 uM in serum-free RPMI-1640, 5 min RT; protein on the cell surface; label: 5'-biotin (pull-down) or Alexa 647 (cell binding)
[7] = tested on: CD44 (predominantly standard isoform CD44s) on human TNBC cells (Homo sapiens (Cis-Pt-R, MDA-MB-231, BT-549 cells)); assay: confocal microscopy; details: Cis-Pt-R cells, 2 uM aptamer, undetectable signal; 2'-fluoro pyrimidines (2'F-Py); confocal: 2 uM in serum-free RPMI-1640, 5 min RT; protein on the cell …; label: 5'-biotin (pull-down) or Alexa 647 (cell binding)

Row | Sequence | binding result [1] | binding result (CD44 on murine 4T1 cells [2]) | binding result [3] | binding result [4] | binding result [5] | binding result (CD44 on murine 4T1 cells [6]) | binding result [7]
1 | GGACAUAUGAUGCAACGUUGUGGUCCCGUUUGCACUUUGUUUACG [sTN58] | binds | binds | binds | binds | binds |  | 
2 | UUCGUACCGGGUAGGUUGGCUUGCACAUAGAACGUGUCA [SCR] |  |  |  |  |  | no binding | no binding
